This passage reports binding results from paper PMC8789783.

Results are given in words; binding and its absence hold for the method and conditions named. Binding seen in cells or lysates may run through a third protein. Some entries that bind do so weakly or less than the wild type.

This assay concerns the target T1, human wild-type FOXO1 (human), Q12778.
T1 chain: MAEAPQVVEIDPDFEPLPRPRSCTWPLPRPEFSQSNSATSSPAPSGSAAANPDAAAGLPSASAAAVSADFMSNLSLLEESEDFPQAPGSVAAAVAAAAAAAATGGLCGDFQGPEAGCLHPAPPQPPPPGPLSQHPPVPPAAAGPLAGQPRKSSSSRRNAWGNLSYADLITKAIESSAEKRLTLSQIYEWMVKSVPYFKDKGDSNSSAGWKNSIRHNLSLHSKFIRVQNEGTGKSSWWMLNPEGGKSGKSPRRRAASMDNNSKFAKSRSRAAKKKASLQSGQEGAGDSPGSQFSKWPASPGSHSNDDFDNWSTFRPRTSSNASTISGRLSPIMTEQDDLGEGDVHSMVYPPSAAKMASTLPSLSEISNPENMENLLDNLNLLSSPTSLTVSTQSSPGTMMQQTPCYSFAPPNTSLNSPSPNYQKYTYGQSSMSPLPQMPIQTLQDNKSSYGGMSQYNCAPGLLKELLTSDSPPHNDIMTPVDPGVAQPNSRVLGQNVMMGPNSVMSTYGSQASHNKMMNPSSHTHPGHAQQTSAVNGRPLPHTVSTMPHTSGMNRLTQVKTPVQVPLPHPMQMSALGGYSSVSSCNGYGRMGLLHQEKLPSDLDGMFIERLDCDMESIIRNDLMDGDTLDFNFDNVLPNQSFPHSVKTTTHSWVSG
Nature of the assay: co-IP; HEK293T cells transfected with wild-type or mutated pCMV-FOXO1; lysed in RIPA buffer (50 mM Tris/HCl pH 7.4, 150 mM NaCl, 1 mM EDTA, 0.25% sodium deoxycholate, 1% NP-40); 3 mg of proteins precipitated overnight at 4 °C with anti-FOXO1 antibody, protein A/G beads; blot with anti-FOXO1 and anti-ATG7. As to conditions: remark: other sources report otherwise.

B1: ATG7, O95352 1-703 (protein)
chain: MAAATGDPGLSKLQFAPFSSALDVGFWHELTQKKLNEYRLDEAPKDIKGYYYNGDSAGLPARLTLEFSAFDMSAPTPARCCPAIGTLYNTNTLESFKTADKKLLLEQAANEIWESIKSGTALENPVLLNKFLLLTFADLKKYHFYYWFCYPALCLPESLPLIQGPVGLDQRFSLKQIEALECAYDNLCQTEGVTALPYFLIKYDENMVLVSLLKHYSDFFQGQRTKITIGVYDPCNLAQYPGWPLRNFLVLAAHRWSSSFQSVEVVCFRDRTMQGARDVAHSIIFEVKLPEMAFSPDCPKAVGWEKNQKGGMGPRMVNLSECMDPKRLAESSVDLNLKLMCWRLVPTLDLDKVVSVKCLLLGAGTLGCNVARTLMGWGVRHITFVDNAKISYSNPVRQPLYEFEDCLGGGKPKALAAADRLQKIFPGVNARGFNMSIPMPGHPVNFSSVTLEQARRDVEQLEQLIESHDVVFLLMDTRESRWLPAVIAASKRKLVINAALGFDTFVVMRHGLKKPKQQGAGDLCPNHPVASADLLGSSLFANIPGYKLGCYFCNDVVAPGDSTRDRTLDQQCTVSRPGLAVIAGALAVELMVSVLQHPEGGYAIASSSDDRMNEPPTSLGLVPHQIRGFLSRFDNVLPVSLAFDKCTACSSKVLDQYEREGFNFLAKVFNSSHSFLEDLTGLTLLHQETQAAEIWDMSDDETI
Regarding B1, the binding result was “binds”.
